The campaign covered roughly 310,000 compounds. About 17,000 (5.5%) were called active. The inconclusive results got no clear call from the source; some entries with a clear call stand among them for comparison. Calls come from the whole dose curve; as a rule, active = well fitted inhibition curve with a large enough effect; inconclusive = small, poorly fitted or top-dose-only effect, or effect the other way; inactive = no such curve, though single readings can be large or run the other way. A potency beside an inconclusive call is a rough fit, not a confirmed value.
Molecular target: Nuclear receptor ROR-gamma (Mus musculus) (UniProt P51450)
Assay: qHTS for inhibitors of ROR gamma transcriptional activity; note: nearly all actives have a fitted effect of over 60% in size
Settings: Drosophila S2 Gal4-RORgamma UAS-luciferase reporter, 20 h; activity change, negative = inhibition: at 53.6 µM (top of the series)
Method in brief: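 Drosophila Schneider cells stably carrying a metallothionein-driven Gal4 DBD–ROR gamma fusion and a UAS-Photinus luciferase reporter were exposed to compound for 1 hr, then induced with copper sulfate (700 uM final) for 20 hr at ambient temperature before luminescence reading.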
% is set by controls: 0 for no effect and ±100 for the full control effect; potency is the fitted concentration of half-maximal effect.

Chains of the proteins cited; added tags and fusions are not shown. Lines headed by an entry give the natural chain unless they say otherwise; changes in a name come on top.
UniProt P51450: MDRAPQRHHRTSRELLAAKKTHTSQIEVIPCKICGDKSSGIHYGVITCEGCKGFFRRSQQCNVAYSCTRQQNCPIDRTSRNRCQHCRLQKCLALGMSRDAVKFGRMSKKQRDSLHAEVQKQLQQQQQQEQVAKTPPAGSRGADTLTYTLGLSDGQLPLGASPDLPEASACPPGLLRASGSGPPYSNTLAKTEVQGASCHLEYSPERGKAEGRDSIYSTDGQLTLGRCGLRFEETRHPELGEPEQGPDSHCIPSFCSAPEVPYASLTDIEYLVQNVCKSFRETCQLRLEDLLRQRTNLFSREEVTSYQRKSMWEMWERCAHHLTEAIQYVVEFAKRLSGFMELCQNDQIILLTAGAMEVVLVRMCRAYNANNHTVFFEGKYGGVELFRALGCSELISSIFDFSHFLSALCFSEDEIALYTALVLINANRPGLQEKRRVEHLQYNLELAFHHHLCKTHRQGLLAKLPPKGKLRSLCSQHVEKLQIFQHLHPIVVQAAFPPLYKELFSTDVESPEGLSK

Potency, inconclusive:
CC(C)(C)c1ccc(-c2nc(C#N)c(NCc3cccnc3)o2)cc1 12.6 µM [activator, single point], Cc1ccccc1Nc1nc(N)nc(CSCC(=O)Nc2cccc(Br)c2)n1 28.2 µM [activator, single point], O=C1CCN(Cc2ccc(O)cc2)CCN1[C@H](CO)c1ccccc1 35.5 µM [inhibitor, partial curve, poor fit], COCC1CCCN(C(=O)c2ccc3oc(CCCc4ccccc4)nc3c2)C1 (stereo not given) 12.6 µM [activator, single point], CCCc1nc([N+](=O)[O-])c(S(=O)(=O)c2ccccc2)n1CC(C)C 20 µM [inhibitor, single point], N#Cc1c(NC(=O)c2cnccn2)sc2c1CCCC2 10 µM [inhibitor, single point], CCOC(=O)c1c(-c2ccccc2)csc1NC(=O)/C(C#N)=C/c1ccc(O)c(OC)c1 12.6 µM [activator, partial curve], COc1ccc(C(=O)/C(C#N)=N/Nc2ccccc2[N+](=O)[O-])cc1 12.6 µM [activator, partial curve], CCc1nnc(NC(=O)c2nn(-c3ccccc3)nc2C)s1 17.8 µM [inhibitor, single point], COc1ccc2c(c1)c(CC(=O)O)c(C)n2C(=O)c1ccc(Cl)cc1 12.6 µM [activator, partial curve], COc1ccc(N(C)C(=O)c2cc3c(Cl)nc4ccccc4c3s2)cc1 20 µM [activator, single point], CCn1c(SCC(=O)Nc2ccc(OC)cc2)nnc1-c1ccco1 20 µM [activator, single point]

Activity change, negative = inhibition, inactive:
CSc1nsc(SC)c1NC(=O)N1CCCC1 13.9%, CCSc1nnc(-c2ccncc2)o1 26.9%, COCCN(CCOC)C(=O)c1ccc(CSc2nc3ccccc3s2)cc1 37.8%, CCc1nnc(NC(=O)c2cc(S(=O)(=O)N3CCN(c4ccccc4)CC3)ccc2Cl)s1 -26%, CC(=O)c1ccccc1C(=O)N1CCCC(CCC(=O)N2CCN(c3ccccn3)CC2)C1 (stereo not given) 1.73%, CCOC(=O)[C@@H]1[C@H]2COc3ccc(Br)cc3[C@H]2N2C(=O)N(c3ccc(C)cc3)C(=O)[C@]12C 0.328%, O=C(O)COc1ccccc1-c1nc(-c2ccccc2)c(-c2ccccc2)[nH]1 28.2%, COc1ccc(C)cc1N(C(=O)c1ccccc1F)c1nc2ccccc2s1 -15.8%

— PubChem BioAssay AID2551 (National Center for Advancing Translational Sciences (NCATS), 2010)
